System: p-phenylquinone-induced writhing in mice
Test: animal or person
Type: in vivo, mouse (male ddY mice)
Details: Mus musculus, sc, read-out: Analgesic effect, phenylquinone-induced writhing, ED50

CN1CC[C@]23c4c5ccc(O)c4O[C@H]2[C@@H](O)C=C[C@H]3[C@H]1C5.Cl [Morphine HCl, reference compound]
ED50: 0.48 mg/kg

Source: patent US5021413A (priority 1988, dated 1991)
